The other results are listed elsewhere or left out.
compound: COc1ccc(Cn2ccc3ccc(C(=O)NO)cc32)cc1; assay: dose-dependent thermal stabilisation call (2D-TPP, DLPTP, 10% FDR) (binary (1 = stabilised)); higher = stabilised by the compound; settings: system: HL-60 intact cells; concentration range 0.04-10 µM

Sequences of proteins named here, by UniProt entry; tags and fusion partners are left off. A change or cut given only in a name is not applied to a line headed by its entry.
UniProt O14678: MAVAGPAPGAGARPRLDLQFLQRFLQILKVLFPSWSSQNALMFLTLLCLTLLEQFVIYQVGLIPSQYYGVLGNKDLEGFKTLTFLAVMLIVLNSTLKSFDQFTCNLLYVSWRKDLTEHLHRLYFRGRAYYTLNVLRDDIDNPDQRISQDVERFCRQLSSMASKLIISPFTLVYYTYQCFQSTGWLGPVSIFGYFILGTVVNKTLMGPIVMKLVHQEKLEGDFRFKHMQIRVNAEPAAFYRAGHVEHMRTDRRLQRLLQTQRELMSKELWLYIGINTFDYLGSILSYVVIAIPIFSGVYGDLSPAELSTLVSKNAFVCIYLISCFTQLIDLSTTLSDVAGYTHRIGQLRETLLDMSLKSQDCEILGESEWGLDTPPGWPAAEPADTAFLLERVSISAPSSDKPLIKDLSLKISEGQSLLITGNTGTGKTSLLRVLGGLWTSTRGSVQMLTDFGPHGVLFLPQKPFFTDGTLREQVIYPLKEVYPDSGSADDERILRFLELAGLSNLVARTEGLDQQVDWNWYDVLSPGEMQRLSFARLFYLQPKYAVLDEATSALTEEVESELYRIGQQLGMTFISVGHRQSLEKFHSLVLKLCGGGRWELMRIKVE
UniProt Q13685: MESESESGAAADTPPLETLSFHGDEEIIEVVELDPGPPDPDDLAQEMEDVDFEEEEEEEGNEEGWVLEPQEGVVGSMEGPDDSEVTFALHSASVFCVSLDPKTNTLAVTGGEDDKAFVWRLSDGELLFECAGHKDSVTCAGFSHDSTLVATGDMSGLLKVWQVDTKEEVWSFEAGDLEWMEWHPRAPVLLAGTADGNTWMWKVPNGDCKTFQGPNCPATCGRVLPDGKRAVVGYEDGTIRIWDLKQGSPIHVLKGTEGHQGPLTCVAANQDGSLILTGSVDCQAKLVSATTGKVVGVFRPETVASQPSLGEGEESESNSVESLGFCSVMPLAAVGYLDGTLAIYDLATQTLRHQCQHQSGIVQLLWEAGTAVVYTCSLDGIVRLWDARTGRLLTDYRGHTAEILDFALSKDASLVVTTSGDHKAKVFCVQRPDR
UniProt Q15057: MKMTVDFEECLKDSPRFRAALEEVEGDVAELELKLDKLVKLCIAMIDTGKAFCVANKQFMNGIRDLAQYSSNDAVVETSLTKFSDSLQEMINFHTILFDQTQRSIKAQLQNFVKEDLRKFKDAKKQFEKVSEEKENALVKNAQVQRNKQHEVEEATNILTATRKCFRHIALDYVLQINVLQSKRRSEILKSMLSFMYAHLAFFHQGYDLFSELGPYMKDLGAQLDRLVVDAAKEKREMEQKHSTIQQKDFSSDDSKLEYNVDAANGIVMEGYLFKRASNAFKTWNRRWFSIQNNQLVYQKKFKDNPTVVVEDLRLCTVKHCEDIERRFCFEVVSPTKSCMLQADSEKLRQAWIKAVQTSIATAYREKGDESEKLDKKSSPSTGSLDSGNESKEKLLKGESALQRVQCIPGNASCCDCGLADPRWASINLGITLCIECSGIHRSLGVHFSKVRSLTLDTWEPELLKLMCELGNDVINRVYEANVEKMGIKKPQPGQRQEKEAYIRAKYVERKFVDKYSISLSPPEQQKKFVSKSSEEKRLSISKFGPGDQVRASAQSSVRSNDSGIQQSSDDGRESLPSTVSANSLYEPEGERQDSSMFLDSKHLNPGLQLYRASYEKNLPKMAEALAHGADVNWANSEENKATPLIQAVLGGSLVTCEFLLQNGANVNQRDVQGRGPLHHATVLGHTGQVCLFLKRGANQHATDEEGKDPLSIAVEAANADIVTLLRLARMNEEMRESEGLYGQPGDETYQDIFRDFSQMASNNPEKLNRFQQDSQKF
UniProt P28288: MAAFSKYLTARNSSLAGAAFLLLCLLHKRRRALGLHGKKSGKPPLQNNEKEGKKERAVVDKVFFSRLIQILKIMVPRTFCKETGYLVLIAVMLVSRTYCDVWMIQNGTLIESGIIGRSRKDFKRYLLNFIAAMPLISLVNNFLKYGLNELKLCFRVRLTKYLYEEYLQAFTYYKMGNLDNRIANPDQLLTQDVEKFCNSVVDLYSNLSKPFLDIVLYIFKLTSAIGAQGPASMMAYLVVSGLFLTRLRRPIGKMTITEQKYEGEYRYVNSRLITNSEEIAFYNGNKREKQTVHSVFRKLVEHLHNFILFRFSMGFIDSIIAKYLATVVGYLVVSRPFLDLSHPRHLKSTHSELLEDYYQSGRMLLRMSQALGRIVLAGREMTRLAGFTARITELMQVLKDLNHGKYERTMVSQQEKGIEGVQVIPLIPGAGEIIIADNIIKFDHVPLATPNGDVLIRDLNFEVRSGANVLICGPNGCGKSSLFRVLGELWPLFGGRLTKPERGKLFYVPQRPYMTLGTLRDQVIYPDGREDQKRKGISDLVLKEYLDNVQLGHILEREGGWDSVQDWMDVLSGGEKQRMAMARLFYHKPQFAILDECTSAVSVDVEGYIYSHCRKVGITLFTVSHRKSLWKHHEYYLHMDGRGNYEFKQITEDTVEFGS
UniProt Q86V21: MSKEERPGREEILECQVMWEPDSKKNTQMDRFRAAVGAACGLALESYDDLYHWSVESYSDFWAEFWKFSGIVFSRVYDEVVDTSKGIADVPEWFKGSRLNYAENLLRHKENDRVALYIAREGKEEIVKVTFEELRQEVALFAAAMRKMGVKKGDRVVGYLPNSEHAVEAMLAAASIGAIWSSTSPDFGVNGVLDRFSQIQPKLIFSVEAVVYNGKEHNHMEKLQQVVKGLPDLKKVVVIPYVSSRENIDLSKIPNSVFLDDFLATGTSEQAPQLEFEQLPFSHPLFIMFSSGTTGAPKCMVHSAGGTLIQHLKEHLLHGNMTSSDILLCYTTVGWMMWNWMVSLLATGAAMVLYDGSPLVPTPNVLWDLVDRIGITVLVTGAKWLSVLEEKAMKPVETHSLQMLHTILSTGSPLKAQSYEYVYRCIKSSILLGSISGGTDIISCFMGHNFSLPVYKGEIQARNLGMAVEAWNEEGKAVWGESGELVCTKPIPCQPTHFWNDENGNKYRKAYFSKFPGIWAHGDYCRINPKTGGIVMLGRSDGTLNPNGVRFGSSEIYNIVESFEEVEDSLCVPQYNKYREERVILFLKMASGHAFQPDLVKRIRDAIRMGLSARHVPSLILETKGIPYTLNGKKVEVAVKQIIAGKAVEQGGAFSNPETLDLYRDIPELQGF
UniProt A8MTT3: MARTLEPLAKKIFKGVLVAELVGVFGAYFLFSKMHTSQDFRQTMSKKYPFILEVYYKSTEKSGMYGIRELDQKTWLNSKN
UniProt P63104: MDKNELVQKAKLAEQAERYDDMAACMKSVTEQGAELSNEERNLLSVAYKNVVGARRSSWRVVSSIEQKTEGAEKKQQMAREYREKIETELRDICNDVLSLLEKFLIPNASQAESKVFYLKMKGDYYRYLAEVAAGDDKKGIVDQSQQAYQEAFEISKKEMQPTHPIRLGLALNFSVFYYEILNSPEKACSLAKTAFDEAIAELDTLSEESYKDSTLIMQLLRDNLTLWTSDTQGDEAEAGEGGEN
UniProt Q9UQR1: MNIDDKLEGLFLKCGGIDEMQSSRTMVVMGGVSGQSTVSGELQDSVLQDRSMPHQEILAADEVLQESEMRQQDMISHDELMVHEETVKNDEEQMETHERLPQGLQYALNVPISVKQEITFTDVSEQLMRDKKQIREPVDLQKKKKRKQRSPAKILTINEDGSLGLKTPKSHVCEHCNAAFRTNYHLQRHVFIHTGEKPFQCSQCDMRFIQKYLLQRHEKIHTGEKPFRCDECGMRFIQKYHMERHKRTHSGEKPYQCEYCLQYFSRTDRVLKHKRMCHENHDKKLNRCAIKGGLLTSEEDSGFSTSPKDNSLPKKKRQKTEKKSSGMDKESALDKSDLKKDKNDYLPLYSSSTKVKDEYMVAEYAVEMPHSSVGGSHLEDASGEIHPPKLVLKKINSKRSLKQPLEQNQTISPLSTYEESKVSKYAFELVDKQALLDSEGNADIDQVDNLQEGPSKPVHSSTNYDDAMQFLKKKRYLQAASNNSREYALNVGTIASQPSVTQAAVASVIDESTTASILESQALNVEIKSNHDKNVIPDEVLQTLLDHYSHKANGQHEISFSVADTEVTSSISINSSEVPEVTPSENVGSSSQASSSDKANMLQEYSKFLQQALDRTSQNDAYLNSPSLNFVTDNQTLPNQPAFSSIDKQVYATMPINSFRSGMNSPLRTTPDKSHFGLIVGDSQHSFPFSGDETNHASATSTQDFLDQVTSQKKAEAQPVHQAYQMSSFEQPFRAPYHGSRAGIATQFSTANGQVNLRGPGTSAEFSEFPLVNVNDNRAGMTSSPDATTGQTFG
UniProt P25490, whole entry: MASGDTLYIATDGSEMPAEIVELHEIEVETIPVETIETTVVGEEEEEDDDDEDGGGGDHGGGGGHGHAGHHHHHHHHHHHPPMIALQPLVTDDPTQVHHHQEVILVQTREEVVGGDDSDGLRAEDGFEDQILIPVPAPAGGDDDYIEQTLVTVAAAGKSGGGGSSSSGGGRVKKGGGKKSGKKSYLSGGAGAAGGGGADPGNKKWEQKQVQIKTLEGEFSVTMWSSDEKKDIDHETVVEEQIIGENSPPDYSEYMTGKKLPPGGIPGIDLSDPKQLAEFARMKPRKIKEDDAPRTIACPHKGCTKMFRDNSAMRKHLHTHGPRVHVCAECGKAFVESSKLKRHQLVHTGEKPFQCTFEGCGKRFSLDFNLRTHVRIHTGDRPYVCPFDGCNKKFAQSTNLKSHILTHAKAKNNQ
UniProt Q8NEZ3: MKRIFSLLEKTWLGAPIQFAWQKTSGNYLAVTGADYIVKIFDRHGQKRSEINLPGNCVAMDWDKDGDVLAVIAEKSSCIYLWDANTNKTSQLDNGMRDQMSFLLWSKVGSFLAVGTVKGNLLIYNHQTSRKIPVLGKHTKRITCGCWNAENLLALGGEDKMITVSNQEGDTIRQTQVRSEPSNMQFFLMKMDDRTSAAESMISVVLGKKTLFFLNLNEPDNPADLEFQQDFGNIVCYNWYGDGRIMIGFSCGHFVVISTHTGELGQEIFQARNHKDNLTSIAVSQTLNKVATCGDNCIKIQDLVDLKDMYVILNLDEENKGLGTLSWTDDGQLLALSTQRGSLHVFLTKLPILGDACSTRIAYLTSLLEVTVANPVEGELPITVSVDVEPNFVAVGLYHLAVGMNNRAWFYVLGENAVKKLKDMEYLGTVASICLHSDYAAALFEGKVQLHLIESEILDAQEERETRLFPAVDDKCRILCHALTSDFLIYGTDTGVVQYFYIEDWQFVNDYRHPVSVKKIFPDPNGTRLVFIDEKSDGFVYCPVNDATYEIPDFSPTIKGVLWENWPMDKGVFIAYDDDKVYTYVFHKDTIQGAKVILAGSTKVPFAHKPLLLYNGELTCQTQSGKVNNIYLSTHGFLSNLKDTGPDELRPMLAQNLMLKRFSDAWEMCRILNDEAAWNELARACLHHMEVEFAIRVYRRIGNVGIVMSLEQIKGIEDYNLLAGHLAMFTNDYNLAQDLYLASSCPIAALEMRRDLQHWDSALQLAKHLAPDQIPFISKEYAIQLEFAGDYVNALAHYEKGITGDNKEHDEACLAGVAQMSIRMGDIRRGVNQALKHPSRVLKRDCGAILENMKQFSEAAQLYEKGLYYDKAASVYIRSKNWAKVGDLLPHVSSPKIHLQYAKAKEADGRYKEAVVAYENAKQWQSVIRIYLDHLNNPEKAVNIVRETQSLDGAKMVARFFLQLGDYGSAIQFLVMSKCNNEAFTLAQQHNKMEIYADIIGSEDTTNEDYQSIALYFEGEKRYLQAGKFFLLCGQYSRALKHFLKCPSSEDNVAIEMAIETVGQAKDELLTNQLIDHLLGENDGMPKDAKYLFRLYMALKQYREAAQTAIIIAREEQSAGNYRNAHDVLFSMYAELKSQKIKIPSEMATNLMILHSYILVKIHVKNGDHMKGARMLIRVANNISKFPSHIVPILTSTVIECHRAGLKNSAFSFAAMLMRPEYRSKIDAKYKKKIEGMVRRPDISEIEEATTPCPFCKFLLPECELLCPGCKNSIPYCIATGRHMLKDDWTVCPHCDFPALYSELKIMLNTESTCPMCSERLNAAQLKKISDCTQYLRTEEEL
UniProt Q96ME7: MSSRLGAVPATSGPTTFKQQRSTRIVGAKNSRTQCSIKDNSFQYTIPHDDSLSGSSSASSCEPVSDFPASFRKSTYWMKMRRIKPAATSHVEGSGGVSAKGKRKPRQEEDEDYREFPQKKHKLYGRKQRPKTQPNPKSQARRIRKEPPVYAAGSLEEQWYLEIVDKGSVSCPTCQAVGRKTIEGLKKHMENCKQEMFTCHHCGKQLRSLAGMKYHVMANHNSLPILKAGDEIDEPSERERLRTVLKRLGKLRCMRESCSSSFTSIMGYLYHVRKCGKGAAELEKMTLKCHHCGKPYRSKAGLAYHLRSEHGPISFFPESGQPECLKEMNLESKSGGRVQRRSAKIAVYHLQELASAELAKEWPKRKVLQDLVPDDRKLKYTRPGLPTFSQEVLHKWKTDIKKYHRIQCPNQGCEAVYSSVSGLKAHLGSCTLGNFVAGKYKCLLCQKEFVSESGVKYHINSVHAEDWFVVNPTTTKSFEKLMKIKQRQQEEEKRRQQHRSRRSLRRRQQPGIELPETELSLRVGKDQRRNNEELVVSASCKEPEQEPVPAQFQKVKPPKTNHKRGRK

| Target | dose-dependent thermal stabilisation call |
| --- | --- |
| ABCD4 (UniProt O14678) | inactive: 0 |
| AATF (UniProt Q9NY61) | inactive: 0 |
| ACAD8 (UniProt Q9UKU7) | inactive: 0 |
| AAMP (UniProt Q13685) | active: 1 |
| AASDHPPT (UniProt Q9NRN7) | inactive: 0 |
| ACAP2 (UniProt Q15057) | inactive: 0 |
| ABHD10 (UniProt Q9NUJ1) | inactive: 0 |
| ABCD3 (UniProt P28288) | inactive: 0 |
| ACAD10 (UniProt Q6JQN1) | inactive: 0 |
| ACAD9 (UniProt Q9H845) | inactive: 0 |
| AACS (UniProt Q86V21) | inactive: 0 |
| ABCB10 (UniProt Q9NRK6) | inactive: 0 |
| ABCF1 (UniProt Q8NE71) | inactive: 0 |
| 49 KDA PROTEIN. | inactive: 0 |
| ACADSB (UniProt P45954) | inactive: 0 |
| AAK1 (UniProt Q2M2I8) | inactive: 0 |
| CEBPZOS HUMAN (UniProt A8MTT3) | inactive: 0 |

2 records drawn at random from the list so far:

| Target | dose-dependent thermal stabilisation call |
| --- | --- |
| ABCB10 (UniProt Q9NRK6) | inactive: 0 |
| ABCF1 (UniProt Q8NE71) | inactive: 0 |

compound: COc1ccc(Cn2ccc3cc(C)c(C(=O)NO)cc32)cc1; assay: as above; settings: system: HL-60 intact cells; concentration range 0.04-10 µM
Method: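 2D thermal proteome profiling in intact HL-60 cells treated with BRD-3811 (0, 0.04, 0.29, 2, 10 uM) for 90 min at 37 C, then heated 3 min at one of 12 temperatures (42-63.9 C). Soluble protein was quantified by TMT10 MS. The value is the DLPTP call of the paper: dose-dependent thermal stabilisation over all temperatures at 10% FDR (F-test of a dose-response against a flat model); one experiment, one call per tested protein.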

| Target | dose-dependent thermal stabilisation call |
| --- | --- |
| XRN2 (UniProt Q9H0D6) | inactive: 0 |
| ZBTB7B (UniProt O15156) | inactive: 0 |
| WIPI2 (UniProt Q9Y4P8) | inactive: 0 |
| ZNF428 (UniProt Q96B54) | inactive: 0 |
| XRCC5 (UniProt P13010) | inactive: 0 |
| YWHAB (UniProt P31946) | inactive: 0 |
| YWHAZ (UniProt P63104) | inactive: 0 |
| WDR74 (UniProt Q6RFH5) | inactive: 0 |
| ZNF148 (UniProt Q9UQR1) | inactive: 0 |
| YY1 (UniProt P25490) | inactive: 0 |
| YPEL5 (UniProt P62699) | inactive: 0 |
| XPNPEP1 (UniProt Q9NQW7) | inactive: 0 |
| WDR19 (UniProt Q8NEZ3) | inactive: 0 |
| ZNF644 (UniProt Q9H582) | inactive: 0 |
| ZCCHC11 (UniProt Q5TAX3) | inactive: 0 |
| ZNF512 (UniProt Q96ME7) | inactive: 0 |
| ZNF800 (UniProt Q2TB10) | inactive: 0 |
| ZBTB43 (UniProt O43298) | inactive: 0 |
| WTAP (UniProt Q15007) | inactive: 0 |
